# The shares of active, inactive and inconclusive entries below differ from those in the screen. A potency beside an inconclusive call is a rough fit, not a confirmed value. Calls of active or inactive are those of the source. How the source made its calls: active means hit-call score of the fitted dose curve at least 0.9, where 1 is the maximum; inconclusive means response in the unintended direction; inactive means score below 0.9.
# Experiment: ACEA_ER_AUC_viability: ACEA Biosciences xCELLigence Real-Time Cell Analysis on Estrogen Receptor Agonism for Viability (AID 2283782);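 further: hit means loss of impedance signal meaning reduced cell growth or viability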
# In short: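 Continuous-exposure impedance cell analysis uses T-47D cells in charcoal-stripped serum, eight 1:4 dilutions topping at 100 uM final, biological duplicate. Area under the growth curve at 80 h is fitted against DMSO baseline.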
SMILES,AC50,outcome
CC(=O)Oc1c(C)c(C)c2c(c1C)CC[C@@](C)(CCC[C@H](C)CCC[C@H](C)CCCC(C)C)O2,inconclusive: 50 µM,–
CC1=CCC2C(=O)OC(=O)C2C1 (stereo not drawn),inconclusive: 0.0122 µM,–
CCCCCCCCC(C)=O,active: 9.92 µM,–
CC(C)=NNC(N)=S,active: 82.4 µM,–
O=C(O)c1ccc(C(=O)O)c(C(=O)O)c1,–,inactive
Clc1ccc2c(Cl)ccnc2c1,–,inactive
O=C1CCCC1,–,inactive
C=C(C)C(=O)OCCCCCC,inconclusive: 10 µM,–
CCC(O)CO (stereo not drawn),active: 26 µM,–
O=C(C=Cc1ccccc1)OCC=Cc1ccccc1,inconclusive: 5.64 µM,–
Oc1ccc(C2(c3ccc(O)c(C4CCCCC4)c3)CCCCC2)cc1C1CCCCC1,active: 38.9 µM,–
C1CCCNCC1,inconclusive: 50 µM,–
CCCC(O)C(CC)CO (stereo not drawn),inconclusive: 50 µM,–
O=C(O)C(F)(F)C(F)(F)C(F)(F)C(F)(F)C(F)(F)C(F)(F)C(F)(F)C(F)(F)C(F)(F)C(F)F,inconclusive: 17.8 µM,–
CC(C)(C)C(=O)C1C(=O)c2ccccc2C1=O,active: 88.2 µM,–
Cc1ccc(C(C)(C)C)cc1,–,inactive
COCC(C)O (stereo not drawn),inconclusive: 50 µM,–
O=C(O)C(F)(F)C(F)(F)C(F)(F)C(F)(F)C(F)(F)C(F)(F)C(F)(F)C(F)F,inconclusive: 20.7 µM,–
O=P(c1ccccc1)(c1ccccc1)c1ccccc1,–,inactive

SMILES,AC50,outcome
Oc1ccc2ccccc2c1N=Nc1ccccc1,inconclusive: 4.24 µM,–
CC(C)c1ccc2cc(C(C)C)ccc2c1,inconclusive: 50 µM,–
CC1(C)CC(=O)CC(C)(C)N1,–,inactive
S=C(NC1CCCCC1)NC1CCCCC1,–,inactive
CC(C)(C)c1cc(CCC(=O)NCCCCCCNC(=O)CCc2cc(C(C)(C)C)c(O)c(C(C)(C)C)c2)cc(C(C)(C)C)c1O,inconclusive: 17.7 µM,–
CCCOc1ccc(S(=O)(=O)N2CCN(CC)CC2)cc1-c1nc2c(CC)n(Cc3ccccn3)nc2c(=O)[nH]1,inconclusive: 50 µM,–
CCCCCCC=O,inconclusive: 10.9 µM,–
NC(=O)Nc1ccc(Cl)cc1,inconclusive: 49.8 µM,–
CCCCCCCC/C=C\CCCCCCCC(=O)O,active: 50 µM,–
O=C(OCc1ccccc1)c1ccc(O)cc1,active: 82.6 µM,–
Nc1ccc(Oc2cccc(Oc3ccc(N)cc3)c2)cc1,active: 64.2 µM,–
Cc1ccc(C(=O)c2ccccc2)cc1,active: 72.3 µM,–
CCN(CC)C(=O)c1cc(S(=O)(=O)Cc2ccccc2)c(N2CCC(c3ccccc3)CC2)cc1N(CC)CCN(C)C,active: 4.19 µM,–
CC(=O)OC1CCCCC1,active: 40.3 µM,–
C=CCOC(=O)c1ccccc1C(=O)OCC=C,inconclusive: 19.8 µM,–
Cc1ccccc1Cl,inconclusive: 50 µM,–
CC/C=C\C/C=C\C/C=C\CCCCCCCC(=O)OC,–,inactive
C1CCC2(CCCCO2)OC1,–,inactive
C=CC(=O)OCCC(F)(F)C(F)(F)C(F)(F)C(F)(F)F,inconclusive: 20.9 µM,–

# Part of the list above, reformatted.
SMILES	AC50	outcome
NC(=O)Nc1ccc(Cl)cc1	inconclusive: 49.8 µM	–
CCCCCCCC/C=C\CCCCCCCC(=O)O	active: 50 µM	–
